Values quoted from earlier work in US20090011005A1, “Pharmaceuticals compositions containing nanomaterials useful for treating restenotic lesions” (priority 2007, published 2009).
For at least one compound, name, drawing or mass did not settle the structure.

Test system: restenosis
Settings: oral administration, high doses

In the case of `CO[C@H]1C[C@@H]2CC[C@@H](C)[C@@](O)(O2)C(=O)C(=O)N2CCCC[C@H]2C(=O)O[C@H]([C@H](C)C[C@@H]2CC[C@@H](O)[C@H](OC)C2)CC(=O)[C@H](C)/C=C(\C)[C@@H](O)[C@@H](OC)C(=O)[C@H](C)C[C@H](C)/C=C/C=C/C=C/1C` [rapamycin], the restenosis rate is given as “approximately 22%”.
